Reference: patent US20060205805A1, “Crystalline forms of atorvastatin” (priority 2000, published 2006)
Structures can show the parent of a compound that is named as a salt.

Conditions: about 40° C. / about 75% relative humidity for at least about 1 month, or about 25° C. / about 60% relative humidity for at least about 6 months; stable = no more than about 0.01% (w/w) AED formed

stability against the formation of the impurity AED: stable
SMILES: CC(C)c1c(C(=O)Nc2ccccc2)c(-c2ccccc2)c(-c2ccc(F)cc2)n1CCC(O)C[C@@H](O)CC(=O)O (stereo in doubt) [Form A, [R-(R*,R*)]-2-(4-fluorophenyl)-beta,delta-dihydroxy-5-(1-methylethyl)-3-phenyl-4-[(phenylamino)carbonyl]-1H-pyrrole-1-heptanoic acid calcium salt]
